Measured values published in US20160369115A1, “POLARIZING PLATE COMPOSITION, POLARIZING PLATE PROTECTIVE FILM, POLARIZER, POLARIZING PLATE, LIQUID CRYSTAL DISPLAY DEVICE, AND COMPOUND USED IN THE LIQUID CRYSTAL DISPLAY DEVICE” (FUJIFILM Corporation, priority 2014, published 2016).

Columns and labels:
[1] = Durability evaluation of polarizing plate, additive in polarizing plate protective film (Example 1); conditions: 410 nm
[2] = Evaluation of light-fast adhesiveness of polarizing plate protective film with hardcoat layer; conditions: light 96 hours, 60° C., 50% RH
[3] = additive in protective film: Acrylic resin, 23 μm, added amount 4.0 per 100 parts by mass of film resin
[4] = additive in protective film: COP, 23 μm, added amount 4.0 per 100 parts by mass of film resin
[5] = additive in protective film: Cellulose acylate, 25 μm, added amount 1.0 per 100 parts by mass of film resin
[6] = additive in protective film: Cellulose acylate, 25 μm, added amount 2.0 per 100 parts by mass of film resin
[7] = additive in protective film: Cellulose acylate, 25 μm, added amount 4.0 per 100 parts by mass of film resin
[8] = additive in protective film: Cellulose acylate, 40 μm, added amount 4.0 per 100 parts by mass of film resin
[9] = additive in protective film: Cellulose acylate, 60 μm, added amount 4.0 per 100 parts by mass of film resin
[10] = additive in protective film: Cellulose acylate, 80 μm, added amount 4.0 per 100 parts by mass of film resin
[11] = additive in protective film: PET, 50 μm, added amount 4.0 per 100 parts by mass of film resin

## COC(=O)Oc1c(Cc2ccccc2)c(=O)n(-c2ccccc2)c(=O)n1Cc1ccccc1 [Example compound A]
[1]; [3]
  Durability of polarizer: amount of change of orthogonal transmittance (%) 60° C., 95%, 500 hours: A+ (The amount of change of the orthogonal transmittance before and after the elapse of time was less than 0.4%.)
  Durability of polarizer: amount of change of orthogonal transmittance (%) 60° C., 95%, 1,000 hours: A+ (The amount of change of the orthogonal transmittance before and after the elapse of time was less than 1.0%.)
  Durability of polarizer: amount of change of orthogonal transmittance (%) 80° C., Dry 500 hours: A+ (The amount of change of the orthogonal transmittance before and after the elapse of time was less than 0.1%.)
  Durability of polarizer: amount of change of orthogonal transmittance (%) 80° C., Dry, 1,000 hours: A+ (The amount of change of the orthogonal transmittance before and after the elapse of time was less than 0.5%.)
[1]; [4]
  Durability of polarizer: amount of change of orthogonal transmittance (%) 60° C., 95%, 500 hours: A+ (The amount of change of the orthogonal transmittance before and after the elapse of time was less than 0.4%.)
  Durability of polarizer: amount of change of orthogonal transmittance (%) 60° C., 95%, 1,000 hours: A+ (The amount of change of the orthogonal transmittance before and after the elapse of time was less than 1.0%.)
  Durability of polarizer: amount of change of orthogonal transmittance (%) 80° C., Dry 500 hours: A+ (The amount of change of the orthogonal transmittance before and after the elapse of time was less than 0.1%.)
  Durability of polarizer: amount of change of orthogonal transmittance (%) 80° C., Dry, 1,000 hours: A+ (The amount of change of the orthogonal transmittance before and after the elapse of time was less than 0.5%.)
[1]; [5]
  Durability of polarizer: amount of change of orthogonal transmittance (%) 60° C., 95%, 500 hours: A+ (The amount of change of the orthogonal transmittance before and after the elapse of time was less than 0.4%.)
  Durability of polarizer: amount of change of orthogonal transmittance (%) 60° C., 95%, 1,000 hours: A (The amount of change of the orthogonal transmittance before and after the elapse of time was equal to or greater than 1.0% and less than 1.4%.)
  Durability of polarizer: amount of change of orthogonal transmittance (%) 80° C., Dry 500 hours: A+ (The amount of change of the orthogonal transmittance before and after the elapse of time was less than 0.1%.)
  Durability of polarizer: amount of change of orthogonal transmittance (%) 80° C., Dry, 1,000 hours: A (The amount of change of the orthogonal transmittance before and after the elapse of time was equal to or greater than 0.5% and less than 0.8%.)
[1]; [6]
  Durability of polarizer: amount of change of orthogonal transmittance (%) 60° C., 95%, 500 hours: A+ (The amount of change of the orthogonal transmittance before and after the elapse of time was less than 0.4%.)
  Durability of polarizer: amount of change of orthogonal transmittance (%) 60° C., 95%, 1,000 hours: A (The amount of change of the orthogonal transmittance before and after the elapse of time was equal to or greater than 1.0% and less than 1.4%.)
  Durability of polarizer: amount of change of orthogonal transmittance (%) 80° C., Dry 500 hours: A+ (The amount of change of the orthogonal transmittance before and after the elapse of time was less than 0.1%.)
  Durability of polarizer: amount of change of orthogonal transmittance (%) 80° C., Dry, 1,000 hours: A (The amount of change of the orthogonal transmittance before and after the elapse of time was equal to or greater than 0.5% and less than 0.8%.)
[1]; [7]
  Durability of polarizer: amount of change of orthogonal transmittance (%) 60° C., 95%, 500 hours: A+ (The amount of change of the orthogonal transmittance before and after the elapse of time was less than 0.4%.)
  Durability of polarizer: amount of change of orthogonal transmittance (%) 60° C., 95%, 1,000 hours: A+ (The amount of change of the orthogonal transmittance before and after the elapse of time was less than 1.0%.)
  Durability of polarizer: amount of change of orthogonal transmittance (%) 80° C., Dry 500 hours: A+ (The amount of change of the orthogonal transmittance before and after the elapse of time was less than 0.1%.)
  Durability of polarizer: amount of change of orthogonal transmittance (%) 80° C., Dry, 1,000 hours: A+ (The amount of change of the orthogonal transmittance before and after the elapse of time was less than 0.5%.)
[1]; [8]
  Durability of polarizer: amount of change of orthogonal transmittance (%) 60° C., 95%, 500 hours: A+ (The amount of change of the orthogonal transmittance before and after the elapse of time was less than 0.2%.)
  Durability of polarizer: amount of change of orthogonal transmittance (%) 60° C., 95%, 1,000 hours: A+ (The amount of change of the orthogonal transmittance before and after the elapse of time was less than 0.7%.)
  Durability of polarizer: amount of change of orthogonal transmittance (%) 80° C., Dry 500 hours: A+ (The amount of change of the orthogonal transmittance before and after the elapse of time was less than 0.2%.)
  Durability of polarizer: amount of change of orthogonal transmittance (%) 80° C., Dry, 1,000 hours: A+ (The amount of change of the orthogonal transmittance before and after the elapse of time was less than 0.6%.)
[1]; [9]
  Durability of polarizer: amount of change of orthogonal transmittance (%) 60° C., 95%, 500 hours: A+ (The amount of change of the orthogonal transmittance before and after the elapse of time was less than 0.2%.)
  Durability of polarizer: amount of change of orthogonal transmittance (%) 60° C., 95%, 1,000 hours: A+ (The amount of change of the orthogonal transmittance before and after the elapse of time was less than 0.4%.)
  Durability of polarizer: amount of change of orthogonal transmittance (%) 80° C., Dry 500 hours: A+ (The amount of change of the orthogonal transmittance before and after the elapse of time was less than 0.1%.)
  Durability of polarizer: amount of change of orthogonal transmittance (%) 80° C., Dry, 1,000 hours: A+ (The amount of change of the orthogonal transmittance before and after the elapse of time was less than 0.3%.)
[1]; [10]
  Durability of polarizer: amount of change of orthogonal transmittance (%) 60° C., 95%, 500 hours: A+ (The amount of change of the orthogonal transmittance before and after the elapse of time was less than 0.1%.)
  Durability of polarizer: amount of change of orthogonal transmittance (%) 60° C., 95%, 1,000 hours: A+ (The amount of change of the orthogonal transmittance before and after the elapse of time was less than 0.3%.)
  Durability of polarizer: amount of change of orthogonal transmittance (%) 80° C., Dry 500 hours: A+ (The amount of change of the orthogonal transmittance before and after the elapse of time was less than 0.07%.)
  Durability of polarizer: amount of change of orthogonal transmittance (%) 80° C., Dry, 1,000 hours: A+ (The amount of change of the orthogonal transmittance before and after the elapse of time was less than 0.1%.)
[1]; [11]
  Durability of polarizer: amount of change of orthogonal transmittance (%) 60° C., 95%, 500 hours: A+ (The amount of change of the orthogonal transmittance before and after the elapse of time was less than 0.2%.)
  Durability of polarizer: amount of change of orthogonal transmittance (%) 60° C., 95%, 1,000 hours: A+ (The amount of change of the orthogonal transmittance before and after the elapse of time was less than 0.5%.)
  Durability of polarizer: amount of change of orthogonal transmittance (%) 80° C., Dry 500 hours: A+ (The amount of change of the orthogonal transmittance before and after the elapse of time was less than 0.1%.)
  Durability of polarizer: amount of change of orthogonal transmittance (%) 80° C., Dry, 1,000 hours: A+ (The amount of change of the orthogonal transmittance before and after the elapse of time was less than 0.4%.)
[2]; [3]
  Light-fast adhesiveness: A (The number of cells peeled off among 100 cells was equal to or less than 10.)
[2]; [4]
  Light-fast adhesiveness: A (The number of cells peeled off among 100 cells was equal to or less than 10.)
[2]; [5]
  Light-fast adhesiveness: B (The number of cells peeled off among 100 cells was 11 to 20.)
[2]; [6]
  Light-fast adhesiveness: B (The number of cells peeled off among 100 cells was 11 to 20.)
[2]; [7]
  Light-fast adhesiveness: A (The number of cells peeled off among 100 cells was equal to or less than 10.)
[2]; [8]
  Light-fast adhesiveness: A (The number of cells peeled off among 100 cells was equal to or less than 10.)
[2]; [9]
  Light-fast adhesiveness: A (The number of cells peeled off among 100 cells was equal to or less than 10.)
[2]; [10]
  Light-fast adhesiveness: A (The number of cells peeled off among 100 cells was equal to or less than 10.)
[2]; [11]
  Light-fast adhesiveness: A (The number of cells peeled off among 100 cells was equal to or less than 10.)

## CCOC(=O)Oc1c(Cc2ccccc2)c(=O)n(-c2ccccc2)c(=O)n1-c1ccccc1 [Example compound C]
[1]; [7]
  Durability of polarizer: amount of change of orthogonal transmittance (%) 60° C., 95%, 500 hours: A+ (The amount of change of the orthogonal transmittance before and after the elapse of time was less than 0.4%.)
  Durability of polarizer: amount of change of orthogonal transmittance (%) 60° C., 95%, 1,000 hours: A+ (The amount of change of the orthogonal transmittance before and after the elapse of time was less than 1.0%.)
  Durability of polarizer: amount of change of orthogonal transmittance (%) 80° C., Dry 500 hours: A+ (The amount of change of the orthogonal transmittance before and after the elapse of time was less than 0.1%.)
  Durability of polarizer: amount of change of orthogonal transmittance (%) 80° C., Dry, 1,000 hours: A+ (The amount of change of the orthogonal transmittance before and after the elapse of time was less than 0.5%.)
[2]; [7]
  Light-fast adhesiveness: A (The number of cells peeled off among 100 cells was equal to or less than 10.)

Some entries repeat one wording, which the source may state once for all of them. Some ranges recur; such a range may be that of the whole group of compounds.
